{"source": "paper PMC9537309", "key": {"DND1 RRM12 W215F (human) [1]": {"target": "T1, DND1 RRM12 W215F (human) (UniProt Q8IYX4)", "T1 sequence (looked up)": "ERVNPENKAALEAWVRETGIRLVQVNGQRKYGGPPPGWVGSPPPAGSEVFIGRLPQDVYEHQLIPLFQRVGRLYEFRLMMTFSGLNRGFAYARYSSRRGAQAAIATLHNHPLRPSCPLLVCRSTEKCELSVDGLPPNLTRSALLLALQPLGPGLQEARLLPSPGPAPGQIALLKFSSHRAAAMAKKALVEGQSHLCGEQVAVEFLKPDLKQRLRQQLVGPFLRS", "experiment": "ITC", "conditions": "weaker binding, lower bound, N = 0.919; ITC: 100 mM potassium phosphate pH 6.6, 1 mM 2-mercaptoethanol, 25 C; recombinant protein; residues 12-235; protein details: N-terminal 6xHis, TEV-cleaved"}, "[2]": {"target": "T2, DND1 extended RRM1 (human) (UniProt Q8IYX4)", "T2 sequence (looked up)": "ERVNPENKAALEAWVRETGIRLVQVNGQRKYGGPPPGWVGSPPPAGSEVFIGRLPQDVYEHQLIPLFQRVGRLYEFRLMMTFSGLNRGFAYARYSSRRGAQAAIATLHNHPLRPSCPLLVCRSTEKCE", "experiment": "ITC", "conditions": "lower bound, ITC: 100 mM potassium phosphate pH 6.6, 1 mM 2-mercaptoethanol, 25 C, recombinant protein, residues 12-139, protein details: N-terminal 6xHis, TEV-cleaved"}, "DND1 RRM12 W215F (human) [3]": {"target": "T1, DND1 RRM12 W215F (human)", "experiment": "NMR titration", "conditions": "smaller shift changes than WT; NMR: 100 mM potassium phosphate pH 6.6, 1 mM DTT, 298 K (or 20 mM MES pH 6.6, 100 mM NaCl); Supplementary Fig. 3: 25 mM NaCl, 2 mM DTT, pH 6.3, 303 K; recombinant protein; residues 12-235; protein details: N-terminal 6xHis, TEV-cleaved"}, "DND1 RRM2 (human)": {"target": "T3, DND1 RRM2 (human) (UniProt Q8IYX4)", "T3 sequence (looked up)": "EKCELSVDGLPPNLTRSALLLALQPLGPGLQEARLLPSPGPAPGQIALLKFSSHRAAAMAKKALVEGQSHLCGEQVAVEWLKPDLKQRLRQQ", "experiment": "NMR titration", "conditions": "NMR: 100 mM potassium phosphate pH 6.6, 1 mM DTT, 298 K (or 20 mM MES pH 6.6, 100 mM NaCl); Supplementary Fig. 3: 25 mM NaCl, 2 mM DTT, pH 6.3, 303 K; recombinant protein; residues 136-227; protein details: N-terminal 6xHis, TEV-cleaved"}, "[4]": {"target": "T2, DND1 extended RRM1 (human)", "experiment": "NMR titration", "conditions": "NMR: 100 mM potassium phosphate pH 6.6, 1 mM DTT, 298 K (or 20 mM MES pH 6.6, 100 mM NaCl), Supplementary Fig. 3: 25 mM NaCl, 2 mM DTT, pH 6.3, 303 K, recombinant protein, residues 12-139, protein details: N-terminal 6xHis, TEV-cleaved"}, "DND1 RRM12 K197A (human)": {"target": "T4, DND1 RRM12 K197A (human) (UniProt Q8IYX4)", "T4 sequence (looked up)": "T1 sequence (looked up) with K186A, F204W", "experiment": "NMR titration", "conditions": "RRM2 helix 2 exchange-broadened; NMR: 100 mM potassium phosphate pH 6.6, 1 mM DTT, 298 K (or 20 mM MES pH 6.6, 100 mM NaCl); Supplementary Fig. 3: 25 mM NaCl, 2 mM DTT, pH 6.3, 303 K; recombinant protein; residues 12-235; protein details: N-terminal 6xHis, TEV-cleaved"}, "[5]": {"target": "T5, DND1 RRM12 (tandem RRMs) WT (human) (UniProt Q8IYX4)", "T5 sequence (looked up)": "T1 sequence (looked up) with F204W", "experiment": "ITC", "conditions": "ITC: 100 mM potassium phosphate pH 6.6, 1 mM 2-mercaptoethanol, 25 C, recombinant protein, residues 12-235, protein details: N-terminal 6xHis, TEV-cleaved"}, "[6]": {"target": "T5, DND1 RRM12 (tandem RRMs) WT (human)", "experiment": "NMR titration", "conditions": "NMR: 100 mM potassium phosphate pH 6.6, 1 mM DTT, 298 K (or 20 mM MES pH 6.6, 100 mM NaCl); Supplementary Fig. 3: 25 mM NaCl, 2 mM DTT, pH 6.3, 303 K; recombinant protein; residues 12-235; protein details: N-terminal 6xHis, TEV-cleaved"}, "[7]": {"conditions": "N set to 1, weak binding, lower bound"}}, "note": "Where a chain is given by its changes, count along the chain named. For some of these results: A negative result means that nothing was seen under these conditions. For some of these results: At least one verdict was read from the data and is not stated in words by the source. Protein sequences can lack the tags named with them. For some of these results: The comparison behind a weaker result is the experiment's own reference, which may not be listed here. For some of these results: For at least one entry, the source does not settle the construct or the ends of the probe."}
{"sequence": "CUUAUUUG", "values": [{"measurement": "Kd", "setting": "DND1 RRM12 W215F (human) [1]", "result": "> 10", "unit": "µM"}, {"measurement": "Kd", "setting": "[2]; N set to 1, weak binding", "result": "> 54", "unit": "µM"}, {"measurement": "binding result", "setting": "DND1 RRM12 W215F (human) [3]", "result": "binds more weakly"}, {"measurement": "binding result", "setting": "DND1 RRM2 (human)", "result": "no binding"}, {"measurement": "binding result", "setting": "[4]", "result": "binds more weakly"}, {"measurement": "binding result", "setting": "DND1 RRM12 K197A (human)", "result": "binds more weakly"}]}
{"sequence": "UCCUUAUUU", "values": [{"measurement": "Kd", "setting": "[5]; table column assigned from order and legend", "result": 1.2, "unit": "µM"}]}
{"sequence": "UUAUUU", "values": [{"measurement": "Kd", "setting": "[2]; weak binding, table column assigned from order", "result": "> 35", "unit": "µM"}, {"measurement": "binding result", "setting": "[4]; smaller shifts than with RRM12", "result": "binds more weakly"}]}
{"sequence": "UUUUUAC", "values": [{"measurement": "Kd", "setting": "[5]; [7]", "result": "> 35", "unit": "µM"}, {"measurement": "binding result", "setting": "[6]", "result": "binds more weakly"}]}
{"sequence": "UUUUUCC", "values": [{"measurement": "Kd", "setting": "[5]; [7]", "result": "> 100", "unit": "µM"}, {"measurement": "binding result", "setting": "[6]", "result": "binds more weakly"}]}
